{
  "source": "paper PMC10400037",
  "about": "“Novel players in organogenesis and flavonoid biosynthesis in cucumber glandular trichomes”",
  "target": "T1, MBP-CsTBH (TINY BRANCHED HAIR, HD-ZIP) (Cucumis sativus) (UniProt A0A0A0LED8)",
  "T1 sequence (looked up, limits assumed)": "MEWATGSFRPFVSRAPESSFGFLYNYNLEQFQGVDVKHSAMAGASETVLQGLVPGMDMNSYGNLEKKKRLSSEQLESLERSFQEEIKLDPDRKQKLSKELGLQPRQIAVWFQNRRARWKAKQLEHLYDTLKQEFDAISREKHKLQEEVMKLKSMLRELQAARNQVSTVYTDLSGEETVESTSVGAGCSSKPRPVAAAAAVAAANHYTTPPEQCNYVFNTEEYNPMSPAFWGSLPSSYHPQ",
  "assay": "EMSA",
  "details": "EMSA kit (Beyotime GS009) reaction buffer, room temperature, 6% native PAGE; salt and pH not stated; recombinant protein",
  "note": "The exact form of at least one protein or probe is not confirmed. A weaker result is weaker than the reference pair of the same experiment. Tags and fusion partners may be left off the protein sequences shown.",
  "data": [
    {"sequence": "ATTTATGTTTACAATAATGACAATAAATG (double strand) [CsBZ1 promoter probe]", "values": [
      {"measurement": "binding result", "result": "binds more weakly"}
    ]}
  ]
}
